{"source": "patent US9150899B2", "about": "(2cureX, priority 2004, dated 2015)", "key": {"[1]": {"experiment": "general procedure: Fmoc solid-phase peptide synthesis; HMBA modified PEGA 800; TBTU/NEM; MSNT/MeIm for first residue", "settings": "whole synthesis, scale 200 mg of HMBA modified PEGA 800 beads"}, "[2]": {"experiment": "general procedure: Fmoc solid-phase peptide synthesis; PEGA resin with HMBA linker (HMBA modified PEGA 800 beads); TBTU/NEM; MSNT/MeIm for first residue", "settings": "whole synthesis, scale of the general procedure 200 mg resin"}}, "note": "For part of these data: One purity is given for all peptides; the source may state it once."}
{"substance": "H-Ala-Glu-(1-amino-cyclopentanecarboxyl)-Phe-OH", "values": [{"measurement": "isolated mass", "setting": "[1]", "result": 22, "unit": "mg"}, {"measurement": "final HPLC purity", "setting": "[2]", "result": ">98", "unit": "%"}]}
{"substance": "H-Ala-Glu-(azetidine-1-carboxyl)-(homo-Phe)-OH", "values": [{"measurement": "isolated mass", "setting": "[1]", "result": 21, "unit": "mg"}, {"measurement": "final HPLC purity", "setting": "[2]", "result": ">98", "unit": "%"}]}
{"substance": "H-Ala-Glu-Ala-Val-Pro-Trp-Lys-Ser-Glu-OH", "values": [{"measurement": "final HPLC purity", "setting": "[2]", "result": ">98", "unit": "%"}]}
{"substance": "H-Ala-Val-Pro-Ile-Ala-Gln-Lys-Ser-Glu-OH", "values": [{"measurement": "final HPLC purity", "setting": "[2]", "result": ">98", "unit": "%"}]}
{"substance": "H-Ala-Val-Pro-Ile-OH", "values": [{"measurement": "isolated mass", "setting": "[1]", "result": 17, "unit": "mg"}, {"measurement": "final HPLC purity", "setting": "[2]", "result": ">98", "unit": "%"}]}
{"substance": "H-Ala-Val-Pro-Phe-Ala-Val-Lys-Ser-Glu-OH", "values": [{"measurement": "final HPLC purity", "setting": "[2]", "result": ">98", "unit": "%"}]}
